# Source: paper PMC3271066
# Amino acid sequences for entries named in this document (tags omitted).
# UniProt Q9HDV4: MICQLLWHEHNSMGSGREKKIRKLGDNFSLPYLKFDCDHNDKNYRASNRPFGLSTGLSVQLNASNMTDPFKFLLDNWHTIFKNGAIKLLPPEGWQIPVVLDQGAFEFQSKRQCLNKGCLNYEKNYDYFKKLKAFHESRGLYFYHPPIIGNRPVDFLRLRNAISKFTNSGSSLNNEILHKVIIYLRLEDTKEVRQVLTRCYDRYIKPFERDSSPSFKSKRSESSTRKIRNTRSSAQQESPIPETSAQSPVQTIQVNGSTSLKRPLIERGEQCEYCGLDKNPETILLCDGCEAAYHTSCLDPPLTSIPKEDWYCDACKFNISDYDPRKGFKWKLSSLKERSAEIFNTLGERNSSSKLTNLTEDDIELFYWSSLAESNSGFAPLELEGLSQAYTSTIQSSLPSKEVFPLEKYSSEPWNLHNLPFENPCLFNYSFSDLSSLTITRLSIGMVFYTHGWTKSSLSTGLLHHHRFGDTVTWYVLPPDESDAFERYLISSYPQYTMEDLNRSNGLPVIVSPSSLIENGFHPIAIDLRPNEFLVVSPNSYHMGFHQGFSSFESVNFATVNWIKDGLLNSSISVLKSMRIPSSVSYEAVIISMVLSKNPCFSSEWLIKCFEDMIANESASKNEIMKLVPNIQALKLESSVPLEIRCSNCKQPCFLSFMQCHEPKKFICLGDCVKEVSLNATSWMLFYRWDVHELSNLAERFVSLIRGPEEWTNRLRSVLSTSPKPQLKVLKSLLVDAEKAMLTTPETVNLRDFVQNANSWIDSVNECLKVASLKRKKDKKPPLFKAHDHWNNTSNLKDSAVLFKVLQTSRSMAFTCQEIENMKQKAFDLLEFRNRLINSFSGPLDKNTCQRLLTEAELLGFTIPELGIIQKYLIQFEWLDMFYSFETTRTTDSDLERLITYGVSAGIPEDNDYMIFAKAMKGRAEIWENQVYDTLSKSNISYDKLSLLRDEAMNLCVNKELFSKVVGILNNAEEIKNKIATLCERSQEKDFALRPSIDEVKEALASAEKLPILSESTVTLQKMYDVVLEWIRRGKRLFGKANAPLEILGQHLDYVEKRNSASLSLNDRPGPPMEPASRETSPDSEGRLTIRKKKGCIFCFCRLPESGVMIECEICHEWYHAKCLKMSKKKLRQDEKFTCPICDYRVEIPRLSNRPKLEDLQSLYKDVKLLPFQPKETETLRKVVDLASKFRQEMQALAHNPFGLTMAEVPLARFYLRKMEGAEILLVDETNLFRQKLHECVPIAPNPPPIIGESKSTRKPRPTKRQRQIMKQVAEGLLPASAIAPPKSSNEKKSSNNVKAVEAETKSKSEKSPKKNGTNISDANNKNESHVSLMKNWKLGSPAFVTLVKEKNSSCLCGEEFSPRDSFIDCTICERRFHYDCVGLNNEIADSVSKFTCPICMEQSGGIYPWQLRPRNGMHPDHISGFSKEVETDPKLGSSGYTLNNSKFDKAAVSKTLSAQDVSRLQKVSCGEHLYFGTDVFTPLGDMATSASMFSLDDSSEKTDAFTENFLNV
# UniProt O60016: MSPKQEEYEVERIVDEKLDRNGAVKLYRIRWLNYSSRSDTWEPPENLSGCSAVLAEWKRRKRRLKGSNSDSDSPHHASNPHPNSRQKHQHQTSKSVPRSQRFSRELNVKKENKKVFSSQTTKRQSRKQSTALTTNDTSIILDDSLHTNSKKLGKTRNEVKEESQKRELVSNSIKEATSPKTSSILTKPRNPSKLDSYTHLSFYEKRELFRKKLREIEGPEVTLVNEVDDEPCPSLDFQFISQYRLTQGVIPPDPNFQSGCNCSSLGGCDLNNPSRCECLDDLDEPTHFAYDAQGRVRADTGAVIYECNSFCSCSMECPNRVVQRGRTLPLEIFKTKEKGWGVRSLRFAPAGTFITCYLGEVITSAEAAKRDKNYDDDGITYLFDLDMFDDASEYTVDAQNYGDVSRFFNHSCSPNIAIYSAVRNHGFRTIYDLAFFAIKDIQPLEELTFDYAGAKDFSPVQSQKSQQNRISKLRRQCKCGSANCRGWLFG
# T1: FLAG-Raf1 (S. pombe) (UniProt O74910)
# T1 sequence: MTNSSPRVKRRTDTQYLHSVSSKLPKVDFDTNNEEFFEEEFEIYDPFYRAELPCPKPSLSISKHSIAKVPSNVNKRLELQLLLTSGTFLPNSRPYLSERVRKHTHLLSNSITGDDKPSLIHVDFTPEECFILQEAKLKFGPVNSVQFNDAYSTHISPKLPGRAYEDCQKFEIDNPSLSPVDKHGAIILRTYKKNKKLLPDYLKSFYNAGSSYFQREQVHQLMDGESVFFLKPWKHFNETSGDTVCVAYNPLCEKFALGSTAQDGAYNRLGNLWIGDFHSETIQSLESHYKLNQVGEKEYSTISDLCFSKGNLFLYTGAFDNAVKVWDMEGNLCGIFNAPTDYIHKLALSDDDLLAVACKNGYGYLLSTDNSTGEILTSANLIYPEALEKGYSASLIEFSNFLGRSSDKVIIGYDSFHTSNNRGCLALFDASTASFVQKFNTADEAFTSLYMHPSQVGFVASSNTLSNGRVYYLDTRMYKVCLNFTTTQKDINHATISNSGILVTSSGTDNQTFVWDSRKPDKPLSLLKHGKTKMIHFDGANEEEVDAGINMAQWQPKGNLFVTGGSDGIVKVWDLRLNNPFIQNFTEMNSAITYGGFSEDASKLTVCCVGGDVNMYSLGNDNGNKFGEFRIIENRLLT
# T2: FLAG-Raf1 (S. pombe), O74910
# T2 chain: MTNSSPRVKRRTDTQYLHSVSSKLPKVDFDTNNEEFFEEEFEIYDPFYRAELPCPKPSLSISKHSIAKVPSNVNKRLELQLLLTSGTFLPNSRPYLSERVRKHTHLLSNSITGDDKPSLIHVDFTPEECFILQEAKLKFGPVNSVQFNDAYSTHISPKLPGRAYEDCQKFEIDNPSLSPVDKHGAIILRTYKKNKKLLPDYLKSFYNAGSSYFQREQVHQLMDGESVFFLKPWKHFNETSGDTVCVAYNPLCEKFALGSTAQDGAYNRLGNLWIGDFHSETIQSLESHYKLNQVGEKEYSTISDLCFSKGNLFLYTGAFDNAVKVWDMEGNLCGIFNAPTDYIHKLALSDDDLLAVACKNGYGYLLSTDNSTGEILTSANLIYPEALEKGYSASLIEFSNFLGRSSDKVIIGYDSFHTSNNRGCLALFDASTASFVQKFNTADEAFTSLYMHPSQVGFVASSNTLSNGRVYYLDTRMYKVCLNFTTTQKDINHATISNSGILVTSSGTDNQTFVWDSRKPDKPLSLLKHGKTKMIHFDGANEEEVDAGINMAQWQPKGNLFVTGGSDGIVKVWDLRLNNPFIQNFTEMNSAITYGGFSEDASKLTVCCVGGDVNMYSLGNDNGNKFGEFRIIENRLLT
# What was measured:
# [1] = biological target: T1, FLAG-Raf1 (S. pombe); assay: affinity purification with mass spectrometry; single-step FLAG affinity purification of FLAG-Raf1 from S. pombe lysate (50 mM Hepes pH7.5, 150 mM KCl, 0.1% NP40), anti-FLAG M2 on proteinG Dynabeads 15 min, Benzonase, on-bead tryptic digestion, LC-MS/MS
# [2] = biological target: T2, FLAG-Raf1 (S. pombe), O74910; assay: as above; settings: remark: other sources report otherwise
binding [1],binding [2],Molecule
no binding,–,Lid2 (from UniProt Q9HDV4 1-1513) (enzyme)
binds,–,Clr4 (from UniProt O60016 1-490) (enzyme)
–,binds,"Raf2, O74560 1-636 (protein) MPPVRAEKKRKTDLIEQVCVTNKAGELVDLEDVLEYGPYSLTGILSSEKDEQEPLFDESIVLGYSIKISPVWTYNLKDVPEKETMSIWIVTPQRRYGILSPSSEYKAIYEQISEKNRLFYLIKTKFKDDMISGTLEDYDNYIEVLKEKLELPSCFQAILLVQKHIRFLLTQMVATSSLHVWSESPFFIRIRSSYEHLILQINKNIYNARQERKKSKLSSNNPSDNNTTMKSSLNQALTLINLPEQPFSISSPTATPQLGVVKRTSPLRFPLNDIWLSGLRIVDPNIESISLWKRIQVSTSPKHQRYISLQEVCSVIAQQLQITNLEALNKLSSHGETLLQIMHTAFTWRGTKLFNDIKHAIGFRSSVQQARSQFRGYCYDYLFMHCNNGEKTSLHLLRTLICMKLDFSNAQLAAKILFHFLLFDIGSGLSGSDYTYEQYINHSAVAFSFTEEIFEKNFVTVLPDFVKLFSISFGYWPAFSFYDELLKLLRNKYPKVYSSTPNLCDQVWLDRTNLFPCNRSTRSTLPYRPTKLLDLASASSCLSKKETDFKQDTGLYSYNLEKVEALKVSPDLQTGIWSCPVQNCLYFAVCDNPYKPSQVIYDHLLGHVDSKFIFKTPSNSVRSFTNKLEHIMYNIN"
binds,–,"Rik1 (protein, UniProt Q10426 1-1040) MALCVHSFWATAVDTATSCHFISSENCLVLLQALKINIYLCSEVHGLQFFTSIPLFSTVKHIRPYRPPGLDRDYLFVVLNDDTYFSIYWDEDYQKVIVDHPPVRYRVTFPWNRNAKSYCLVDLRMRAIFLSIDEISMICIRILSAEERLKTGRSIDSGFPFSFPVHLIYDMCILNDSSTPTLVVLHSDGLDCYVTAFLLDLSSKSLGKGIRLFERVKPSMIMPFGKRGLLVFESLFIHCMYRGNFVTINGPCTTYMHWTPLKGQKMHYIVCDTNGYLFGVYSSILGKNKWSLVMERLPIPPFDFITSLNSIHEGLLFIGSKNSESKLINLSTLKDVDSIPNLGPIHDLLVLKNDIEKSFLVCAGTPRNASLIYFQHALKLDILGQTKISGILRAMVLPSYPEHKLFLGFPSETVAFNIKEDFQLELDPSLSTKERTIALSGTNGEFVQVTSTFLCIYDSAKRSRLVYIEKITNAACYQEYSAIVINGTALAIFKKDTEVARKVFESEISCLDFSAQFQIGVGFWSKQVMILTFSDNSSISCAFQTNVPSLPRNIILEGVGVDRNLLLVSSGSGEFKSYVLFKNNLVFSETKHFGTTPVSFRRFTMNIGTYIICNNDCPHMVYGFNGALCYMPLSMPQSYDVCQFRDNSGKDFLISVSLGGLKFLQLNPLPELTPRKVLLEHVPLQAIIFQNKLLLRTLENRYEDYESYKENYHLELVDSYDDNSFRVFSFTENERCEKVLKINESSLLVGTSIIEQDKLVPVNGRLILLEFEKELQSLKVVSSMVLSAAVIDLGVYNDRYIVAFGQQVAIVKLTEERLMIDSRISLGSIVLQLIVEGNEIAIADSIGRFTIMYFDGQKFIVVARYLFGENIVKAALYEGTVYIIATNSGLLKLLRYNKDAKNFNDRFICESVYHLHDKVSKFQNFPITNTNSFLEPKMLFATEIGAIGSIVSLKDKELELEELTRKIRKLKFSYLSSMDYESIEADLISPVPFIDGDLVIDVKRWASSELFRLCRSVEHRESLNSYQKVQALLEEIQSLC"
binds,–,"Cul4 (protein, UniProt O14122 1-734) MPPEAKRIVVKGFDPRKSRQRQETYYVTMIDRLNMALQVVMAGLGLKTGYQELYSGVENLTRADQASRCFNILQHHMSSGIQLLKDSAESFIQLEGTETDTNACTVVVGCWNKWLERVEIVQNIFYYMDKTFLSHHPDYPTIEELSLSLFREKLMAVKNIQIPFLNSLLQSFENLHSSKSTDHAYLQDAMLMLHRTEMYSSVFVPMYLVMLSRFYDTESSQKIQELPLEEYLEYAMSSLEREDAYVEKFDIVRDKKSIRETVQRCLITSHLDTLTKGISQFIEKRDAHSCKLLYALLQFNHETEYLIQPWSDCLVDVGFKLVNDESKDDTLVQELLSFHKFLQVVVDESFLHDETLSYAMRKAFETFINGAKGSQREAPARLIAKYIDYLLRVGEQASGGKPLKEVFSEILDLFRYIASKDIFEAYYKLDIAKRLLLNKSASAQNELMLLDMLKKTCGSQFTHSLEGMFRDVNISKEFTSSFRHSKAAHNLHRDLYVNVLSQAYWPSYPESHIRLPDDMQQDLDCFEKFYLSKQVGKKISWYASLGHCIVKARFPLGNKELSISLFQACVLLQFNNCLGGEGISYQDLKKSTELSDIDLTRTLQSLSCARIRPLVMVPKSKKPSPDTMFYVNEKFTDKLYRVKINQIYLKEERQENSDVQEQVVRDRQFELQASIVRVMKQKEKMKHDDLVQYVINNVKDRGIPLVSDVKTAIEKLLEKEYLEREDNDIYTYVT"

# Results are given in words; binding and its absence hold for the method and conditions named. In cells and extracts the contact can be indirect. Here binding means that the protein was enriched with, or labelled near, the bait; the list need not be complete. For some assays here: A no says only that the protein was not detected with the bait. Where a sequence is shown, tags or fusion partners need not be part of it.
